Test results as given in PubChem BioAssay AID504842 (National Center for Advancing Translational Sciences (NCATS), 2011).
The campaign covered roughly 330,000 compounds. About 100 (0.03%) were called active. This list was built around the results that the source calls inconclusive (neither active nor inactive); the mix of calls is not that of the screen. Calls follow the shape of the dose curve; as a rule, active = well fitted inhibition curve with a large enough effect; inconclusive = small, poorly fitted or top-dose-only effect; inactive = flat fitted curve, though single readings scatter. Where the call is inconclusive, the potency comes from a doubtful curve fit.

System: Chaperonin Mm-Cpn (Methanococcus maripaludis)
Test: Inhibitors of TCP-1 ring complex (TRiC) of Methanococcus maripaludis (MmCpn): qHTS; also: nearly all actives have a fitted effect of over 80% in size;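 as to potency: enzyme at 25 nM with ATP substrate at 10 µM during the reaction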
Details: purified Mm-Cpn ATPase, ADP Transcreener TR-FRET
Method in brief: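 Eu-cryptate anti-ADP/ADP-d2 competition gives a ratio inversely related to ADP. Enzyme at 25 nM was pre-exposed to compound for 10 min, then given 10 uM ATP for 30 min, 37°C throughout.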
Potency is read from the fitted curve at half-maximal effect.

Potency, inconclusive:
O=C(O)CC1(CC(=O)NCc2csc(-c3cccs3)n2)CCCCC1 100 µM [inhibitor, single point]
CCNC(=O)C1CCCN(c2nc(C)cc(C)n2)C1 (stereo not given) 5.62 µM [inhibitor, single point]
CC(=O)NC1C(=O)N(Cc2ccccc2)c2ccc(Br)cc21 (stereo not given) 70.8 µM [inhibitor, single point]
O=C(NCCc1ccccn1)c1c(-c2ccccc2)sc2ccccc12 79.4 µM [inhibitor, single point]
CC(=O)N=C1SC2CS(=O)(=O)CC2N1c1c(Cl)cccc1Cl (stereo not given) 20 µM [inhibitor, single point]
CCOc1ccc(-n2nc3c(SCCN4CCCC4)nnc(C)c3c2C)cc1 355 µM [inhibitor, partial curve, poor fit]
Cc1ccc(NC(=O)c2cc(-c3cccs3)nc3ccccc23)nc1 100 µM [inhibitor, single point]
CN(C)c1nc(NCc2ccccc2)nc(N/N=C/c2ccccc2F)n1 14.1 µM [inhibitor, single point]
C#CCSc1nc(-c2cccs2)ccc1C#N 112 µM [inhibitor, partial curve, poor fit]
CCOc1ccccc1C(=O)NCC(=O)OCc1csc(CC(=O)Nc2ccc(C)cc2)n1 251 µM [inhibitor, partial curve, poor fit]
CNC(=S)N(CCCn1ccnc1)Cc1c(F)cccc1Cl 25.1 µM [inhibitor, single point]
C/C(CC(=O)Nc1cccnc1)=N\NC(=O)C(=O)Nc1cccc(C)c1 50.1 µM [inhibitor, single point]
CSc1c(-c2ccccn2)c(N)nn1C(=O)C1CC1 89.1 µM [inhibitor, single point]
N#CC1=C(N)Oc2cc(N)ccc2C1c1cccc(F)c1 (stereo not given) 31.6 µM [inhibitor, single point]
CCOCCCNC(=O)c1cn(CC)c2ccc(S(=O)(=O)N(C)C3CCCCC3)cc2c1=O 79.4 µM [inhibitor, single point]
CCOc1ccc(NC(=O)N2CCc3ccccc3C2)cc1 63.1 µM [inhibitor, single point]
CCOc1ccc(S(=O)(=O)c2c(C(=O)c3ccc(C)cc3)cnc3cc4c(cc23)OCCO4)cc1 178 µM [inhibitor, partial curve, poor fit]
COc1ccc(-c2csc3ncnc(N4CCN(c5cccc(C)c5C)CC4)c23)cc1 5.01 µM [inhibitor, partial curve, poor fit]
Cc1cc2cc(CNC(=S)Nc3ccc(OC(F)(F)F)cc3)ccc2n1C 112 µM [inhibitor, single point]
Cc1csc(CNc2ncnc3ccc(-c4cccc(Cl)c4)cc23)c1 100 µM [inhibitor, partial curve, poor fit]
Cc1cc2nc(-c3ccc(SCc4ccccn4)nc3)[nH]c2cc1C 112 µM [inhibitor, partial curve, poor fit]
COc1ccc(N2CCN(CC(=O)NC(C)c3ccccc3)CC2)cc1 (stereo not given) 70.8 µM [inhibitor, partial curve]
CCOC(=O)c1c(C)[nH]c(C(=O)OCC(=O)Nc2cc(C)ccc2OC)c1C 100 µM [inhibitor, single point]
CCOC(=O)N1CCC(N(CCN(C)C)C(=S)Nc2cc(C)cc(C)c2)CC1 100 µM [inhibitor, single point]
CCOC(=O)/C=C/C(=O)OCC(=O)NCc1ccccc1 22.4 µM [inhibitor, single point]
O=C(N/N=C/c1ccco1)c1ccn[nH]1 10 µM [inhibitor, single point]
Cc1ccc(SCC(=O)OCC(=O)NC(C)c2ccc(F)cc2)cc1 (stereo not given) 20 µM [inhibitor, single point]
O=C(c1ccc(S(=O)(=O)Nc2cccc(C(F)(F)F)c2)cc1)N1CCN(c2ccccc2O)CC1 89.1 µM [inhibitor, single point]
O=C1C(=O)c2ccccc2C(O)=C1c1ccccc1F 100 µM [inhibitor, single point]
Cc1nc(NC(=O)c2ccccc2)sc1-c1csc(Nc2ccc(Cl)cc2Cl)n1 100 µM [inhibitor, single point]
Cc1ccc(-n2nnnc2C(Cl)c2nnnn2-c2ccc(C)cc2)cc1 100 µM [inhibitor, partial curve, poor fit]
O=c1[nH]nc(Cc2ccc([N+](=O)[O-])cc2)c2ccccc12 17.8 µM [inhibitor, single point]
Cn1c(=O)c2c(nc(SCC(=O)c3cccs3)n2Cc2ccc(F)cc2)n(C)c1=O 158 µM [inhibitor, partial curve, poor fit]
COc1ccccc1NC(=O)c1ccc(NC(=O)CN2C(=O)CN(C)C2=O)cc1 112 µM [inhibitor, single point]
NC(=O)CSc1nnc(NC(=O)C2CC(=O)N(c3ccc(F)cc3)C2)s1 (stereo not given) 20 µM [inhibitor, single point]
Cc1ccc2c(c1)c1c(n2CC(O)Cn2nc(C)c(Br)c2C)C(=O)CCC1 (stereo not given) 100 µM [inhibitor, partial curve, poor fit]
COc1cc(NC(=O)C/C(C)=N/NC(=O)Cc2ccccc2)c(OC)cc1Cl 100 µM [inhibitor, single point]
CC(C)c1ccc(CNc2nc3nc4c(c(=O)n3[nH]2)CCC4)cc1 10 µM [inhibitor, single point]
O=c1[nH]c(CN2CCN(c3ccccn3)CC2)nc2c(Br)cc(Br)cc12 20 µM [inhibitor, single point]
O=C(Cc1cccs1)NCCc1csc(-c2ccccc2)n1 44.7 µM [inhibitor, single point]
CN(C(=O)COC(=O)c1cc2c(s1)CCCCC2)C1CCS(=O)(=O)C1 (stereo not given) 5.62 µM [inhibitor, single point]
CCc1ccc2c(c1)C(NC(C)=O)C(=O)N2CCN1CCOCC1 (stereo not given) 15.8 µM [inhibitor, partial curve, poor fit]
COc1ccc(CCNC(=O)c2c(Cl)ccc(Cl)c2OC)cc1OC 100 µM [inhibitor, partial curve, poor fit]
Cn1cc(CN2CCc3c([nH]c4ccccc34)C2C2CCCCC2)cn1 (stereo not given) 126 µM [inhibitor, partial curve, poor fit]
S=c1[nH]nc(CSCc2ccccc2Cl)n1-c1ccccc1 70.8 µM [inhibitor, single point]
Cc1ccccc1OCC(=O)NCC(=O)N/N=C/C=C/c1ccccc1 50.1 µM [inhibitor, single point]
COc1cc(/C=C(\C#N)c2nc3ccccc3[nH]2)ccc1O 50.1 µM [inhibitor, single point]

2 entries drawn at random from the list so far, as already listed:
Potency, inconclusive:
CCOC(=O)N1CCC(N(CCN(C)C)C(=S)Nc2cc(C)cc(C)c2)CC1 100 µM [inhibitor, single point]
O=C(NCCc1ccccn1)c1c(-c2ccccc2)sc2ccccc12 79.4 µM [inhibitor, single point]

Next part:

Potency, inactive:
Oc1ccccc1/C=N/NC(=S)NC1CC2C=CC1C2 (stereo not given)
O=[N+]([O-])c1cccc(/C=N/Nc2nccnc2Cl)c1
O=C(c1cccc(S(=O)(=O)N2CCOCC2)c1)N(Cc1nnc(-c2ccccc2Cl)o1)C1CC1
O=C(NN1C(=O)c2cc(Br)ccc2NC1c1ccccc1Cl)c1ccncc1 (stereo not given)
O=C(O)c1ccc(N=Cc2c(O)ccc3oc4c(c23)CCCC4)cc1
Nc1nc2ccc(C(=O)Nc3ccccc3)cc2s1
CS(=O)(=O)N(CC(=O)NCCSC1CCCCC1)c1cccc(F)c1
Cc1ccc(C2CC(c3cccs3)=NN2C(=O)CSc2nc3ccccc3o2)cc1 (stereo not given)
Clc1ccc2oc(-c3ccccc3)nc2c1
CCn1c(-c2cccc(S(=O)(=O)N3CCCC3)c2)n[nH]c1=S
O=C(CSc1ccc(-c2ccco2)nn1)NCc1ccc(F)cc1
O=C(CN1C(=O)c2ccccc2S1(=O)=O)NCCSC1CCCCC1
O=C(C[C@H]1C/C=C\C[C@H](Cc2ccc(F)cc2)C(=O)O[C@@H](c2ccccc2)CNC1=O)N[C@H](CO)Cc1ccccc1
O=C1N/C(=C/c2ccc(N3CCOCC3)o2)C(=O)N1c1ccccc1
Cc1cc(C)c[n+](CC(=O)c2cc3ccccc3oc2=O)c1
Oc1ccccc1C1=Nc2ncnn2C(c2ccccc2)C1 (stereo not given)
Cc1nc(NC(=O)CCl)sc1C(=O)N(C)C
Cc1ccc(-c2cnc3c(Cl)c(C)nn3c2)cc1
O=C(COC(=O)c1cc([N+](=O)[O-])ccc1N1CCOCC1)c1ccccc1
Cc1cc(C)c2c(N)c(C(=O)c3ccc(Br)cc3)oc2n1
Cc1ccc(NC(=O)CN(C)S(=O)(=O)c2ccc3[nH]c(=O)oc3c2)c(C)c1
O=C1OCCN/C1=C\C(=O)c1ccc(Cl)cc1
Cc1ccc(OC(C)C(=O)Nc2ccc(C)c(S(=O)(=O)Nc3ccc(C)cc3C)c2)cc1 (stereo not given)

5 entries out of the list, ordered by molecular weight, smallest number first:
Potency, inactive:
O=C1OCCN/C1=C\C(=O)c1ccc(Cl)cc1
Oc1ccccc1/C=N/NC(=S)NC1CC2C=CC1C2 (stereo not given)
CCn1c(-c2cccc(S(=O)(=O)N3CCCC3)c2)n[nH]c1=S
Cc1cc(C)c2c(N)c(C(=O)c3ccc(Br)cc3)oc2n1
O=C(CN1C(=O)c2ccccc2S1(=O)=O)NCCSC1CCCCC1
